Data as given in PubChem BioAssay AID1259254 (NCATS, 2017)
The deposit covers about 59,000 reagents; this is a part drawn at random. Over the whole deposit, about 1,550 (2.6%) got an active call. 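G2 share is only a proxy for re-replication; each gene was hit by three separate siRNAs, and active genes were retested.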 A number with no mark means an inactive call. Further read-outs or replicates are left out here. Not given: the amount of reagent.

Screen: 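Finding genes that stop cells copying their DNA twice in one cycle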 (primary screen)
Cell system: human HCT116 colorectal cancer cells
Reagents: single siRNA against human genes
Time to read-out: 3 days
Read-out: 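Imaged Hoechst DNA stain sorts each cell into a cycle phase by DNA amount; per plate, G2 fraction set to 0% for non-targeting and 100% for GMNN siRNA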
Direction: G2 robust z-score and G2 cells, % of GMNN control: higher = more G2 cells, more excess DNA replication
Rule for the call: 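Active siRNAs have a G2 robust z of 5 or more median absolute deviations over the median, which in these data means about 38% or higher of GMNN control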

Target gene	PubChem SID	G2 robust z-score	G2 cells, % of GMNN control
UGT3A2	SID160760247	-0.582	-1.13
UGT3A2	SID160760248	0.913	9.39
UGT3A2	SID160760249	0.139	3.94
CALML3	SID160735935	-0.777	-2.5
CALML3	SID160735946	0.866	9.06
CALML3	SID160735956	-0.216	1.45
CDC42SE2	SID160745457	-0.349	0.512
CDC42SE2	SID160745458	-0.806	-2.7
CDC42SE2	SID160745459	2.28	19
PIAS1	SID160720322	0.357	5.48
PIAS1	SID160720323	-0.442	-0.139
PIAS1	SID160720324	-0.291	0.921
FLJ32255	SID160725687	2.49	20.5
FLJ32255	SID160725688	1.2	11.4
FLJ32255	SID160733853	-0.436	-0.099
HBE1	SID160723841	-0.56	-0.971
HBE1	SID160731057	2.92	23.5
HBE1	SID160774864	0.0962	3.64
HSF2BP	SID160729893	1.26	11.8
HSF2BP	SID160729894	0.0178	3.09
HSF2BP	SID160729895	-0.584	-1.14
RAI2	SID160729130	-0.823	-2.82
RAI2	SID160729131	-0.897	-3.35
RAI2	SID160732290	0.0351	3.21
SPATA18	SID160757181	-0.69	-1.89
SPATA18	SID160757182	2.7	22
SPATA18	SID160757183	-0.786	-2.56
PTPN13	SID160715376	0.101	3.68
PTPN13	SID160715377	0.129	3.87
PTPN13	SID160715378	-0.35	0.502
ACSL1	SID160763622	3.02	24.2
ACSL1	SID160763633	1.53	13.8
ACSL1	SID160763644	-0.712	-2.04
CCDC124	SID160732350	0.168	4.15
CCDC124	SID160755143	-0.558	-0.96
CCDC124	SID160755144	-0.401	0.149
MACIR	SID160753664	-0.398	0.169
MACIR	SID160753666	-0.219	1.43
MACIR	SID160753667	-0.391	0.217
SSX2	SID160717411	-0.226	1.38
SSX2	SID160717412	3.44	27.2
SSX2	SID160717413	-1.06	-4.49
SNX13	SID160735587	-0.51	-0.622
SNX13	SID160735588	0.954	9.68
SNX13	SID160735589	-0.406	0.114
TMEM39B	SID160742980	0.679	7.74
TMEM39B	SID160742981	0.988	9.92
TMEM39B	SID160742982	-0.303	0.836
EPGN	SID160762307	0.282	4.95
EPGN	SID160762308	-0.48	-0.408
EPGN	SID160762310	5.43 (active)	41.2
GINS1	SID160723216	-0.537	-0.811
GINS1	SID160723218	6.09 (active)	45.8
GINS1	SID160723219	-0.435	-0.093
TDRD7	SID160736260	-1.02	-4.18
TDRD7	SID160736261	7.65 (active)	56.8
TDRD7	SID160736262	-0.00861	2.91
FOXRED2	SID160749975	1.12	10.9
FOXRED2	SID160749976	0.783	8.48
FOXRED2	SID160749977	1.87	16.1
TIPARP	SID160737370	-0.478	-0.393
TIPARP	SID160737371	-1.02	-4.2
TIPARP	SID160737372	-0.527	-0.741
SEPTIN2	SID160777932	2.74	22.2
SEPTIN2	SID160777933	-0.621	-1.4
SEPTIN2	SID160777935	1.08	10.6
ZFP92	SID160724822	-0.151	1.91
ZFP92	SID160757728	-0.571	-1.05
ZFP92	SID160757729	1.1	10.7
SYT13	SID160746346	1.74	15.2
SYT13	SID160746348	-1.45	-7.24
SYT13	SID160746349	0.216	4.49
PRRT4	SID160767269	0.652	7.55
PRRT4	SID160767270	-0.215	1.45
PRRT4	SID160767271	-0.656	-1.65
SPATC1	SID160765461	-0.234	1.32
SPATC1	SID160765462	0.0522	3.33
SPATC1	SID160765463	-0.354	0.476
CCDC150	SID160763464	-0.0024	2.95
CCDC150	SID160763465	0.194	4.33
CCDC150	SID160763466	-0.661	-1.68
TRPV1	SID160718781	0.8	8.59
TRPV1	SID160718782	-1.7	-9.01
TRPV1	SID160718783	0.694	7.85
TMEM190	SID160724859	6.68 (active)	49.9
TMEM190	SID160724860	-0.372	0.351
TMEM190	SID160758565	0.731	8.11

Records listed so far marked active:
Target gene	PubChem SID	G2 robust z-score	G2 cells, % of GMNN control
EPGN	SID160762310	5.43 (active)	41.2
GINS1	SID160723218	6.09 (active)	45.8
TDRD7	SID160736261	7.65 (active)	56.8
TMEM190	SID160724859	6.68 (active)	49.9
